PubChem BioAssay AID652243, Drosophila RNAi Screening Center – 2013
The deposit covers about 24,000 reagents; shown is a random part of those with a known target gene and a result. Over the whole deposit, 246 (1%) are marked active. 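Plates not normalised; calls are printed but the firefly/Renilla ratio behind them is not deposited; fold cut for lowering reported inconsistently.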 Raw values vary from plate to plate and are shown uncorrected. A plus sign joins genes that one reagent is predicted to hit. Not given: the amount of reagent.

- Assay: 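Knock-downs that decrease or increase androgen receptor reporter signal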 (primary screen)
- Cell system: Drosophila S2R+ cells
- Reagents: long dsRNA against Drosophila genes
- Time to read-out: 72 h (48 h, then 24 h hormone)
- Challenge: synthetic androgen R1881 at 10 nM for 24 h
- Measured: 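Firefly light from an androgen-responsive reporter and Renilla control light per well, raw and unnormalised, for each of two replicates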
- Direction: firefly reporter light: higher = more light from androgen-responsive reporter; Renilla control light: higher = more constitutive control signal (cell number, transfection)
- Hit rule: 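Across duplicate plates, a knock-down whose log firefly/Renilla ratio shifted a set fold down or up from the GFP/LacZ control mean was a hit; the downward cut appears as both 1.5 and 3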
- Meaning of the calls: active = hit: reporter lowered or raised; inactive = no hit

gene	amplicon	firefly reporter light, replicate 1	firefly reporter light, replicate 2	Renilla control light, replicate 1	Renilla control light, replicate 2	outcome
CG14929	DRSC02411	2.11e5	2.84e5	2.28e6	2.32e6	inactive
Tfb5 + CG31917	DRSC28677	3.19e5	4.60e5	1.07e6	9.87e5	inactive
PolA1	DRSC16640	69623	77183	5.31e5	5.79e5	inactive
PolA1	DRSC27879	6.85e5	4.21e5	1.32e6	8.24e5	inactive
Cluap1	DRSC20637	6.07e5	6.20e5	1.55e6	1.30e6	inactive
Cluap1	DRSC23735	7.01e5	5.06e5	7.58e5	6.82e5	inactive
CG30467	DRSC07097	92871	1.01e5	1.36e6	1.36e6	inactive
CG31810 + CG31809	DRSC25411	9.69e5	7.80e5	7.01e5	9.30e5	inactive
Syx1A	DRSC15359	83401	78297	1.41e6	2.16e6	inactive
Syx1A	DRSC21554	6.45e5	6.71e5	1.99e6	1.76e6	inactive
MICU1	DRSC02752	7.25e5	9.32e5	1.14e6	8.88e5	inactive
SCCRO4	DRSC10671	1.00e5	1.16e5	2.18e6	2.27e6	inactive
deltaCOP	DRSC18760	73838	87183	6.26e5	6.47e5	inactive
deltaCOP	DRSC25961	4.40e5	5.81e5	6.81e5	6.47e5	inactive
CG7264	DRSC10793	1.26e5	88998	1.69e6	1.18e6	inactive
CG7264	DRSC26046	2.02e5	2.53e5	8.56e5	7.90e5	inactive
Srp54	DRSC03442	6.48e5	6.00e5	1.58e6	1.48e6	inactive
CG8492	DRSC10984	6.47e5	6.72e5	2.42e6	3.73e6	inactive
CG8492	DRSC21804	5.11e5	7.35e5	2.84e6	4.79e6	inactive
CG14247	DRSC14742	2.25e5	2.35e5	3.52e6	3.67e6	inactive
CG14247	DRSC24048	8.75e5	8.69e5	9.27e5	9.85e5	inactive
CG10151	DRSC05974	4.79e5	5.30e5	2.41e6	2.07e6	inactive
CG10151	DRSC27429	2.46e5	3.85e5	7.26e5	7.66e5	inactive
ND-SGDH	DRSC11102	3.76e5	3.07e5	4.47e6	3.19e6	inactive
CG30192	DRSC03977	1.53e5	2.06e5	2.11e5	4.05e5	inactive
CG7130	DRSC11797	2.65e5	2.44e5	3.45e6	2.48e6	inactive
CG30109 + CG30108	DRSC05674	2.59e5	2.48e5	2.99e5	2.78e5	inactive
CG9154	DRSC03150	1.49e6	1.32e6	2.87e6	3.10e6	inactive
NKAIN	DRSC04531	6.42e5	7.61e5	1.01e6	1.58e6	inactive
NKAIN	DRSC22470	3.30e5	8.28e5	1.20e6	1.59e6	inactive
NKAIN	DRSC29918	9.13e5	9.25e5	1.13e6	1.40e6	inactive
CG33474	DRSC05218	1.09e5	92141	3.06e5	66740	inactive
RanBPM	DRSC06079	2.95e5	4.00e5	1.13e6	9.65e5	inactive
RanBPM	DRSC25174	7.67e5	1.19e6	1.09e6	1.21e6	inactive
CSN7	DRSC06807	7.99e5	9.58e5	1.69e6	1.57e6	inactive
CSN7	DRSC06808	3.66e5	3.21e5	1.53e6	1.69e6	inactive
twe	DRSC03628	8.26e5	1.20e6	1.56e6	1.87e6	inactive
twe	DRSC27109	4.38e5	4.02e5	7.43e5	6.29e5	inactive
twe	DRSC36999					inactive
mRpS26	DRSC10823	2.64e5	1.90e5	1.93e6	2.22e6	inactive
mRpS26	DRSC27288	3.98e5	4.82e5	7.03e5	7.26e5	inactive
CG13385	DRSC02259	2.03e5	1.63e5	1.87e6	1.63e6	inactive
Or85b	DRSC16765	84715	1.14e5	1.64e6	2.54e6	inactive
Hk	DRSC17638	3.57e5	8.32e5	3.80e5	7.68e5	inactive
Hk	DRSC24985	6.00e5	3.88e5	6.03e5	4.68e5	inactive
Hk	DRSC39129	7.40e5	8.72e5	1.53e6	1.67e6	inactive
CG41087 (retired record)	DRSC37850	1.34e6	1.41e6	1.30e6	1.49e6	inactive
SdhCL	DRSC16078	1.51e5	1.65e5	2.99e6	2.95e6	inactive
Cnx14D	DRSC20214	4.61e5	4.26e5	4.16e6	4.00e6	inactive
Cnx14D	DRSC25425	1.29e6	1.56e6	1.01e6	1.56e6	inactive
CG13026	DRSC09906	2.78e5	1.64e5	3.14e6	2.14e6	inactive
CAH8	DRSC15784	2.00e5	2.84e5	3.66e6	3.27e6	inactive
CG2065	DRSC06813	3.60e5	3.90e5	2.75e6	2.34e6	inactive
CG2065	DRSC21328	8.07e5	8.01e5	2.32e6	2.13e6	inactive
CG2065	DRSC29164	5.17e5	4.90e5	1.21e6	1.26e6	inactive
CG17996 + Tsen2	DRSC02650	1.33e5	1.97e5	1.35e6	1.76e6	inactive
CG10165	DRSC02017	1.16e6	1.10e6	1.79e6	1.75e6	inactive
Osi3	DRSC12175	34557	55244	1.28e6	1.17e6	inactive
